# Data published in the supplement of paper PMC11006884.
# By UniProt entry, the sequences of proteins in these tests, tags left out. Where a name states a change or a piece, a line headed by the entry shows the natural chain unless it says otherwise.
# UniProt Q9BY77: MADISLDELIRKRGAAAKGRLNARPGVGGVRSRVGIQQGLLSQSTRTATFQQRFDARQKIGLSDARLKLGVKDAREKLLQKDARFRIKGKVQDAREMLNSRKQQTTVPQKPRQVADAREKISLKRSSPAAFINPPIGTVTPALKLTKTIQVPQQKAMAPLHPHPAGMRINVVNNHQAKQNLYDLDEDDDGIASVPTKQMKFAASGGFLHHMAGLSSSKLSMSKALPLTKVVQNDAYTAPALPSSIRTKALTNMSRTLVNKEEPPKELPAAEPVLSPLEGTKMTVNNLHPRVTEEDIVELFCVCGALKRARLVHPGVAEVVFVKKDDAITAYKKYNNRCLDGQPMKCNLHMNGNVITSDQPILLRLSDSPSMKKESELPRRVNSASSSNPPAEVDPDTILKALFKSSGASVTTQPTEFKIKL
# UniProt Q9BV19: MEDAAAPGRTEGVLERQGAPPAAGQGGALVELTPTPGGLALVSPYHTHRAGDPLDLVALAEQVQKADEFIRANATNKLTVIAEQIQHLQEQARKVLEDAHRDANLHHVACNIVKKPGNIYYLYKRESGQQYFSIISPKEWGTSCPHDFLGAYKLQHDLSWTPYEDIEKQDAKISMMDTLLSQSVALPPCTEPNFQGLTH
# UniProt Q9BZX2: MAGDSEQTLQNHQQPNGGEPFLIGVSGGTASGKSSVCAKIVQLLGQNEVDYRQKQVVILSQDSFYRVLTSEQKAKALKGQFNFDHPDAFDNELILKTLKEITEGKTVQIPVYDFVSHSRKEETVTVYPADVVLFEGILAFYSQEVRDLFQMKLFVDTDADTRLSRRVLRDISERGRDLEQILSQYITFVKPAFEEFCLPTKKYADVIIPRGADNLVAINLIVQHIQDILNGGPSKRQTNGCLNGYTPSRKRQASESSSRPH
# UniProt Q9GZR7: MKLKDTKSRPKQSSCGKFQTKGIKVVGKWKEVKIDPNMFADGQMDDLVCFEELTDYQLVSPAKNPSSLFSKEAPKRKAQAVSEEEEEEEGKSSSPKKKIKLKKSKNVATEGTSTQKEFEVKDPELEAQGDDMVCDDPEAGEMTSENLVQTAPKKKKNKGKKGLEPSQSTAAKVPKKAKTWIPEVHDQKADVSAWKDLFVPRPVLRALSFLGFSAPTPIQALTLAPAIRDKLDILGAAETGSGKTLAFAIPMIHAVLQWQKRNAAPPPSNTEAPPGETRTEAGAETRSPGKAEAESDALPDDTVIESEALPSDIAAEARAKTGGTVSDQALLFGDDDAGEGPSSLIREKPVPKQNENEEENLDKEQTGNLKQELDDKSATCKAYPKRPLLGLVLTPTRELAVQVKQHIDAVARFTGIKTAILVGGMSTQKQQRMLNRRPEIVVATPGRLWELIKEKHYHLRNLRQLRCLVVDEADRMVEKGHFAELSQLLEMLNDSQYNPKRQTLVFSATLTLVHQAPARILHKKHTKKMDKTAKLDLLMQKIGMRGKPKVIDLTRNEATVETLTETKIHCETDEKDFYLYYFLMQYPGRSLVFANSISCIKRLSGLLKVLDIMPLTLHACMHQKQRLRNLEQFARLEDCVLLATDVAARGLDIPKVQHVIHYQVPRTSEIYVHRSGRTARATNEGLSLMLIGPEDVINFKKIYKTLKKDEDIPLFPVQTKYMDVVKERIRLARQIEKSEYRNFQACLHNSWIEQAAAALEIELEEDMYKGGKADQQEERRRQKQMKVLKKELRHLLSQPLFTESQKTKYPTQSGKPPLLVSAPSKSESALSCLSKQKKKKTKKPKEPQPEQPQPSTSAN
# UniProt Q9C0C2: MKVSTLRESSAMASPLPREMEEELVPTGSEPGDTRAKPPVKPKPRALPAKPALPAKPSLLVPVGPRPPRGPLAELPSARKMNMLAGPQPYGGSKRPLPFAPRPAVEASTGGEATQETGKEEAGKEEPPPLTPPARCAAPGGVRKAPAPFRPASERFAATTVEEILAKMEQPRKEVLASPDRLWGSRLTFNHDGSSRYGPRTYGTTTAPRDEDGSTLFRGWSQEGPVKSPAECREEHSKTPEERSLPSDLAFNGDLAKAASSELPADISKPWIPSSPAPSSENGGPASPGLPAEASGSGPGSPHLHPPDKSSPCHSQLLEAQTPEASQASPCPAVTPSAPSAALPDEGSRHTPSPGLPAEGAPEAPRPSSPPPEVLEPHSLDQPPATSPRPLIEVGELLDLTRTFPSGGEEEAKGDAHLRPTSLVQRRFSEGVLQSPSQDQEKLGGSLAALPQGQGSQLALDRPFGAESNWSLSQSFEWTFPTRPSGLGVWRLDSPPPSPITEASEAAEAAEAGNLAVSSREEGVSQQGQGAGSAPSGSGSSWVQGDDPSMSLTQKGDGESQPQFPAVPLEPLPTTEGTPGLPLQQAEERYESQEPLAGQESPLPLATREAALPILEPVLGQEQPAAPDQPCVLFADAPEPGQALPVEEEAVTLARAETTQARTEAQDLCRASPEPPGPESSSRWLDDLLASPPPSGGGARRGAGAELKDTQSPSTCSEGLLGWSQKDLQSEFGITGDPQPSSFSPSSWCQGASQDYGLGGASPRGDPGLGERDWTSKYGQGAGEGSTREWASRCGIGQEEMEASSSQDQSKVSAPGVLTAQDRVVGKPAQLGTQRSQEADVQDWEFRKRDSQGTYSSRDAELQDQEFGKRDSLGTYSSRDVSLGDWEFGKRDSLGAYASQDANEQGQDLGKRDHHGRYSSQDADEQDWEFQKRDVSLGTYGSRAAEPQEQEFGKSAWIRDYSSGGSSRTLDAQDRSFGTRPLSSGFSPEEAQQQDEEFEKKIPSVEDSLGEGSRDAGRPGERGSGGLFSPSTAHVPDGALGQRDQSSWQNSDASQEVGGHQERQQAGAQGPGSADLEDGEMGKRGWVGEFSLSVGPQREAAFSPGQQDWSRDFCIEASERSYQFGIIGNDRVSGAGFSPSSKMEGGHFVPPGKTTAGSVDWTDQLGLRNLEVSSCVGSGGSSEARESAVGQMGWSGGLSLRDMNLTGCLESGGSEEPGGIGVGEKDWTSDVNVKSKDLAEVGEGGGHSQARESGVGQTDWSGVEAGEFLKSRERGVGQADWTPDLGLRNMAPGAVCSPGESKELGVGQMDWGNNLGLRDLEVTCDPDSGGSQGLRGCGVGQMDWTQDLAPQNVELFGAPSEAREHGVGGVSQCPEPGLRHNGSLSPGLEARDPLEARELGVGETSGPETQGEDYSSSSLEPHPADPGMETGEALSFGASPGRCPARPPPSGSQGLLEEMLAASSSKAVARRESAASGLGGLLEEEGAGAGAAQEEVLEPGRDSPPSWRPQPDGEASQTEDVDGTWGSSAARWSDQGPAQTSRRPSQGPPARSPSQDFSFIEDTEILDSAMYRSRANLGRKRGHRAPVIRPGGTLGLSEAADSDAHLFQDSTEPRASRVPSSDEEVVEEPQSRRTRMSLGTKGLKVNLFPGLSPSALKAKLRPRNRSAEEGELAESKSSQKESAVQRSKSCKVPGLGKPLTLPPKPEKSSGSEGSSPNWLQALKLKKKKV
# UniProt Q9BRA2: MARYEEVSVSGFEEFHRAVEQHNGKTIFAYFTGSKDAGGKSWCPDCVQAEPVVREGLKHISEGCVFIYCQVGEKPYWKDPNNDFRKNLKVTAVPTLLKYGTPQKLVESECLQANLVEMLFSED
# UniProt Q9BSH5: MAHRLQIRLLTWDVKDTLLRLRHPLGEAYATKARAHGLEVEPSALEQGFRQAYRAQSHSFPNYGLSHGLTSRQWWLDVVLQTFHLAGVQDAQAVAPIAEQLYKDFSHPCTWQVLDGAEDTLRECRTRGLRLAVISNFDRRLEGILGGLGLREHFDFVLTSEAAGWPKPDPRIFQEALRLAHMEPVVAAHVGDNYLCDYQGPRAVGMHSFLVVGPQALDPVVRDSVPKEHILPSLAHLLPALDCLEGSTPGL
# UniProt Q9BW91: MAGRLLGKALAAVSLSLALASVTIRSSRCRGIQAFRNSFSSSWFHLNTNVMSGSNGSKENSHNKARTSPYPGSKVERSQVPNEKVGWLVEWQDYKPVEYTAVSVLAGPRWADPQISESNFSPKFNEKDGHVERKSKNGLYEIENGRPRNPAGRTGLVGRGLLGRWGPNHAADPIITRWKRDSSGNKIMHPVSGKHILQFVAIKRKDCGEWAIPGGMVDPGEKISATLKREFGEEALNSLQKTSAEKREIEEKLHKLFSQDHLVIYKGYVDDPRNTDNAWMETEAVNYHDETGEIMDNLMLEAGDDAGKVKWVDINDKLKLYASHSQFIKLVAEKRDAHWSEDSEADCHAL
# UniProt Q9BW83: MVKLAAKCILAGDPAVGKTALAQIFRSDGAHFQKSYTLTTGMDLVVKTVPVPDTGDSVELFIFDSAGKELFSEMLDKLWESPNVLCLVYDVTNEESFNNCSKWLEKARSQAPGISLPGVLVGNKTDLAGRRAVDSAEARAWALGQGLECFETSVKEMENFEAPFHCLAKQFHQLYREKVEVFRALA
# UniProt Q9BSY9: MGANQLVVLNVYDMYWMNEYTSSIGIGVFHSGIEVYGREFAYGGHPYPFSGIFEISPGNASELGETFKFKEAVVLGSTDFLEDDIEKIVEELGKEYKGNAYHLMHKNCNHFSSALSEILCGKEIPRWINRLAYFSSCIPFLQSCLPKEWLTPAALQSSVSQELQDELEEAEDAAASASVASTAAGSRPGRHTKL
# UniProt Q9C0C9: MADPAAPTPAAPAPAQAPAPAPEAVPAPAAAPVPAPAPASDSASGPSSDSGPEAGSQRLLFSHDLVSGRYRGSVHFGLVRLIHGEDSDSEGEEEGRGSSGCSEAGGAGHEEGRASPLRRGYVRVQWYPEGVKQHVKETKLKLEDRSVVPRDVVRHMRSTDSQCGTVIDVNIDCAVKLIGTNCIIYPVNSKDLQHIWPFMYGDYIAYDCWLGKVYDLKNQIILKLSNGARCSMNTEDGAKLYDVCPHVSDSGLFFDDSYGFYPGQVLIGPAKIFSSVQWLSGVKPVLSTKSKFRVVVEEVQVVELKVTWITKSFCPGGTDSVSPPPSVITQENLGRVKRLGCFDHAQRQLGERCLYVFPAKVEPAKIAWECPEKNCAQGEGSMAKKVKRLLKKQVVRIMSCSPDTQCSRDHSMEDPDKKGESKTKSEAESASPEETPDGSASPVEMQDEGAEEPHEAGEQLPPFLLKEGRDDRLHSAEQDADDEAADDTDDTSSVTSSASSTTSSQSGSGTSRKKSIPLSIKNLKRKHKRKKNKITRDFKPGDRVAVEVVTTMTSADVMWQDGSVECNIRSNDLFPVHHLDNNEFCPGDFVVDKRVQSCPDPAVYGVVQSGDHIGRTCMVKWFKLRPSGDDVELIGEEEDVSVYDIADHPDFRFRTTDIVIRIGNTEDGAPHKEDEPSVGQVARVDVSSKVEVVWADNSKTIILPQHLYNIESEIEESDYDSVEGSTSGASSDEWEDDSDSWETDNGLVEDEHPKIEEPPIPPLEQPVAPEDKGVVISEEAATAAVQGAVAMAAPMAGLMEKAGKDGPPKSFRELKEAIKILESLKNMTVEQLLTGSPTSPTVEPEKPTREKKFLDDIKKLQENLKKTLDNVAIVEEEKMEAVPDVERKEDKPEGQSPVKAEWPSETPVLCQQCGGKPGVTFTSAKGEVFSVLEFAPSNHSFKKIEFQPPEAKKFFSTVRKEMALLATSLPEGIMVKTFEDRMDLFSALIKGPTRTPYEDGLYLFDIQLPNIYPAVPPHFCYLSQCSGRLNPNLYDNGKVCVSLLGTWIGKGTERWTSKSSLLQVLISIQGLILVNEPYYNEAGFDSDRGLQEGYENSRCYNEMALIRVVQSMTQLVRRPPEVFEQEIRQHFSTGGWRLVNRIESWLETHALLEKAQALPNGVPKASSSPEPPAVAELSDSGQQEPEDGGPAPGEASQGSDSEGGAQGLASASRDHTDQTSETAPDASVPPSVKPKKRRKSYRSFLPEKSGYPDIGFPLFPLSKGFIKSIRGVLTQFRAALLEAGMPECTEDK
# UniProt Q9BZE9, whole entry, looked up: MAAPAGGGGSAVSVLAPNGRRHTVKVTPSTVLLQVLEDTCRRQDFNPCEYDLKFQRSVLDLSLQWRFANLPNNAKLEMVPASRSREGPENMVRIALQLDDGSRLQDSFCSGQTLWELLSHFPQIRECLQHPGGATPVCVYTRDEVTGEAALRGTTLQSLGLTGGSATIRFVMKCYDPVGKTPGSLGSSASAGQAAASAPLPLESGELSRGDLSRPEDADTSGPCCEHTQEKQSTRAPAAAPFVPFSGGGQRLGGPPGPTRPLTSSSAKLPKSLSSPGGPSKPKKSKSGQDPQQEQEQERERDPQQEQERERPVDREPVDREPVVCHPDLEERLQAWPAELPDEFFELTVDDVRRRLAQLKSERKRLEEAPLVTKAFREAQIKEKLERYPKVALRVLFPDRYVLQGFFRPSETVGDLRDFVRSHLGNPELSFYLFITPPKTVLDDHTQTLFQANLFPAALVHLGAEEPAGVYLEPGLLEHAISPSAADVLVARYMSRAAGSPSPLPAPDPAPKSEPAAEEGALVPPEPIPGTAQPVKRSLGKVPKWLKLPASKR
# UniProt Q9BRT3: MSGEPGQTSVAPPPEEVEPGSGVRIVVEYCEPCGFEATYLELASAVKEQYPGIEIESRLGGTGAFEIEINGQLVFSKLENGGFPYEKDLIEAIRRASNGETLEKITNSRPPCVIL
# The entries are a selection whose mix differs from that of the whole data set.
# Compound: COC(=O)C#Cc1ccccc1 [methyl 3-phenylpropiolate]
# Assay: log2 ratio of iodoacetamide-alkyne labeling of the cysteine site, DMSO over compound (competition); higher = stronger covalent engagement of the cysteine by the compound, active = 1 or more
# Conditions: 500 µM; treatment time 1 h; system: HEK293T cell lysate
# How it was run: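 Reporter intensities give each cysteine's log2 competition ratio as the mean of control channels over the mean of compound channels. The samples were HEK293T lysate (2 mg/mL) given vehicle or electrophile (500 µM, 1 h, ambient temperature), then iodoacetamide alkyne (1 h), followed by click coupling to sCIP-TMT reagents, pooling, trypsin digestion overnight at 37 °C, streptavidin enrichment, acid elution, Orbitrap Eclipse LC-MS/MS with FAIMS and FragPipe quantification. Duplicate channels and three replicates were run, and cysteines quantified in only one replicate were discarded.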
row,Target,log2 ratio of iodoacetamide-alkyne labeling
1,POLDIP3 C346 (UniProt Q9BY77),inactive: -0.152
2,C1orf50 C189 (UniProt Q9BV19),inactive: 0.17
3,GNB1L C109 (UniProt Q9BYB4),inactive: 0.259
4,UniProt Q9BTX1_C468,inactive: 0.715
5,ISCU C69 (UniProt Q9H1K1),inactive: 0.344
6,UCK2 C241 (UniProt Q9BZX2),inactive: 0.554
7,DDX24 C467 (UniProt Q9GZR7),inactive: 0.384
8,TNKS1BP1 C1443 (UniProt Q9C0C2),inactive: 0.355
9,TXNDC17 C43 (UniProt Q9BRA2),active: 1.34
10,ACAT2 C65 (UniProt Q9BWD1),inactive: -0.126
11,HDHD3 C109 (UniProt Q9BSH5),inactive: 0.973
12,REXO4 C418 (UniProt Q9GZR2),inactive: 0.267
13,GNL3 C131 (UniProt Q9BVP2),inactive: 0.225
14,ILKAP C190 (UniProt Q9H0C8),inactive: -0.0393
15,NUDT9 C347 (UniProt Q9BW91),inactive: 0.139
16,UniProt Q9BW83_C149,inactive: -0.293
17,DESI2 C108 (UniProt Q9BSY9),inactive: -0.125
18,SLC4A1AP C125 (UniProt Q9BWU0),inactive: 0.196
19,PDCL3 C127 (UniProt Q9H2J4),inactive: -0.0528

row,Target,log2 ratio of iodoacetamide-alkyne labeling
1,UBE2O C182 (UniProt Q9C0C9),inactive: 0.354
2,ASPSCR1 C225 (UniProt Q9BZE9),active: 1.02
3,UniProt Q9BYG3_C237,inactive: 0.515
4,NSD3 C1184 (UniProt Q9BZ95),inactive: -0.122
5,RPAP1 C84 (UniProt Q9BWH6),inactive: 0.242
6,API5 C241 (UniProt Q9BZZ5),inactive: 0.652
7,ITPA C146 (UniProt Q9BY32),inactive: 0.383
8,UniProt Q9BRT3_C33,inactive: 0.739
9,MRI1 C168 (UniProt Q9BV20),inactive: 0.0233
10,MRPL37 C153 (UniProt Q9BZE1),inactive: 0.187
11,TNKS1BP1 C716 (UniProt Q9C0C2),inactive: 0.621
12,UniProt Q9BTY7_C368,inactive: -0.125
13,TNKS1BP1 C136 (UniProt Q9C0C2),inactive: 0.642
14,RACGAP1 C419 (UniProt Q9H0H5),inactive: 0.303
15,MRPL9 C221 (UniProt Q9BYD2),inactive: -0.201
16,RBM42 C385 (UniProt Q9BTD8),inactive: 0.043
17,MAF1 C88 (UniProt Q9H063),inactive: 0.737
18,DDA1 C25 (UniProt Q9BW61),inactive: 0.36

# A different layout for part of the listing above:
row | Target | log2 ratio of iodoacetamide-alkyne labeling
2 | ASPSCR1 C225 (UniProt Q9BZE9) | active: 1.02
8 | UniProt Q9BRT3_C33 | inactive: 0.739
